Common to all, as to details: yeast three-hybrid, YBZ-1, SC-Leu-His + 0.5 mM 3-AT, 4 days
For experiment [1], the target named is T1, PUM1 PUF domain R3-GCW C935G + R936C + Q939W (Homo sapiens) (UniProt Q14671).
T1 sequence: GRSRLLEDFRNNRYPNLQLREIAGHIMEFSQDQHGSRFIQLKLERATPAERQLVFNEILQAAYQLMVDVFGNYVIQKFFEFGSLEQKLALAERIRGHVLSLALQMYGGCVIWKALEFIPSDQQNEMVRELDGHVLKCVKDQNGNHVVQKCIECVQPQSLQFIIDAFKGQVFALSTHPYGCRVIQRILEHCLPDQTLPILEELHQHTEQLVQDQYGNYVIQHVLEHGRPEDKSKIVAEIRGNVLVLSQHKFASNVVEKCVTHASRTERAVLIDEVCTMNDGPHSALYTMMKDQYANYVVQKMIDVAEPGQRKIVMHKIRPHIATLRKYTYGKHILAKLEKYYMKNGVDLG

Experiment [2] concerns the target T2, PUM1 PUF domain R3-GPV C935G + R936P + Q939V (Homo sapiens) (UniProt Q14671).
T2 sequence: T1 sequence with C109P, W112V

The target in experiment [3] is T3, PUM1 PUF domain R3-GPY C935G + R936P + Q939Y (Homo sapiens) (UniProt Q14671).
T3 sequence: T1 sequence with C109P, W112Y

Experiment [4] addresses T4, PUM1 PUF domain R3-GRL C935G + Q939L (Homo sapiens) (UniProt Q14671).
T4 sequence: T1 sequence with C109R, W112L

Experiment [5] has as its target T5, PUM1 PUF domain R3-GRW C935G + Q939W (Homo sapiens) (UniProt Q14671).
T5 sequence: T1 sequence with C109R

In experiment [6] the target is T6, PUM1 PUF domain R3-GYV C935G + R936Y + Q939V (Homo sapiens) (UniProt Q14671).
T6 sequence: T1 sequence with C109Y, W112V

The target in experiment [7] is T7, PUM1 PUF domain R3-KRG C935K + Q939G (Homo sapiens) (UniProt Q14671).
T7 sequence: T1 sequence with G108K, C109R, W112G

Experiment [8] has as its target T8, PUM1 PUF domain R3-RDR C935R + R936D + Q939R (Homo sapiens) (UniProt Q14671).
T8 sequence: T1 sequence with G108R, C109D, W112R

The target in experiment [9] is T9, PUM1 PUF domain R3-RRL C935R + Q939L (Homo sapiens) (UniProt Q14671).
T9 sequence: T1 sequence with G108R, C109R, W112L

Experiment [10] concerns the target T10, PUM1 PUF domain R3-RVT C935R + R936V + Q939T (Homo sapiens) (UniProt Q14671).
T10 sequence: T1 sequence with G108R, C109V, W112T

The target of experiment [11] is T11, PUM1 PUF domain R3-SWL C935S + R936W + Q939L (Homo sapiens) (UniProt Q14671).
T11 sequence: T1 sequence with G108S, C109W, W112L

For experiment [12], the target named is T12, PUM1 PUF domain R3-VCQ C935V + R936C (Homo sapiens) (UniProt Q14671).
T12 sequence: T1 sequence with G108V, W112Q

The target in experiment [13] is T13, PUM1 PUF domain R3-VRT C935V + Q939T (Homo sapiens) (UniProt Q14671).
T13 sequence: T1 sequence with G108V, C109R, W112T

The target of experiment [14] is T14, PUM1 PUF domain R6-GWE N1043G + Y1044W + Q1047E (UniProt Q14671).
T14 sequence: T1 sequence with G108C, C109R, W112Q, N216G, Y217W, Q220E

The target of experiment [15] is T15, PUM1 PUF domain R6-HFV N1043H + Y1044F + Q1047V (UniProt Q14671).
T15 sequence: T1 sequence with G108C, C109R, W112Q, N216H, Y217F, Q220V

Experiment [16] deals with T16, PUM1 PUF domain R6-SFG N1043S + Y1044F + Q1047G (UniProt Q14671).
T16 sequence: T1 sequence with G108C, C109R, W112Q, N216S, Y217F, Q220G

Experiment [17] concerns the target T17, PUM1 PUF domain R6-SFM N1043S + Y1044F + Q1047M (UniProt Q14671).
T17 sequence: T1 sequence with G108C, C109R, W112Q, N216S, Y217F, Q220M

The target of experiment [18] is T18, PUM1 PUF domain R6-SYS N1043S + Q1047S (UniProt Q14671).
T18 sequence: T1 sequence with G108C, C109R, W112Q, N216S, Q220S

The target of experiment [19] is T19, PUM1 PUF domain R6-VFS N1043V + Y1044F + Q1047S (UniProt Q14671).
T19 sequence: T1 sequence with G108C, C109R, W112Q, N216V, Y217F, Q220S

In experiment [20] the target is T20, PUM1 PUF domain R6-WWR N1043W + Y1044W + Q1047R (UniProt Q14671).
T20 sequence: T1 sequence with G108C, C109R, W112Q, N216W, Y217W, Q220R

Numbering of substitutions follows the chain as printed. The list shows a part of the results. For some assays here: At the low end of the ranking, values are background and their order means little.

In the case of “GGCUAGAACUAGUGGAUCCCCCGGCGCCCGGCGGCUCGAGCCCGGGUAAGUGUAAGUAGUCUGCAUGCCGCCGGGCGCCAUGCCUGCAGGUCGACUCUAGAAAACAUG”, the binding signal (log2 enrichment (interaction score)) in experiment [1] was -1.41; in [2], -2.74; in experiment [3], -3.88; in experiment [4], -1.53; in experiment [5] it was -1.86; in experiment [6] it was -2.18. Further, the binding signal (log2 enrichment (interaction score)) was -1.43 in experiment [7]; -1.85 in [8]; -2.55 in experiment [9]; -2.52 in experiment [10]; -1.58 in [11]; -1.25 in experiment [12]. Moreover, the binding signal (log2 enrichment (interaction score)) in [13] is -1.91.

Take “GGCUAGAACUAGUGGAUCCCCCGGCGCCCGGCGGCUCGAGCCCGGGUAAGUGCAAAUAGUCUGCAUGCCGCCGGGCGCCAUGCCUGCAGGUCGACUCUAGAAAACAUG”: the binding signal (log2 enrichment (interaction score)) in [14] was -6.2; in experiment [15] it was -5.76; in [16] it was -6.68; in [17] it was -5.59; in experiment [18] it was -5.05; in experiment [19], -7.15. For the same sequence, in experiment [20], the binding signal (log2 enrichment (interaction score)) is -5.28.

The values are drawn from publication PMC8384837.
